Reference: US20230103885A1
Results are given in words; binding and its absence hold for the method and conditions named.

Assays:
[1] = target: anti-BCMA CAR comprising an anti-BCMA scFV; assay: flow cytometry, dilution series (1:100 to 1:5000) of microscale-purified 29E4B5 on anti-BCMA CAR T cells, readout %CAR+
[2] = target: anti-BCMA CAR comprising an anti-BCMA scFV; assay: flow cytometry on CAR T cells, microscale purified antibody at various dilutions
[3] = target: anti-CD70 CAR comprising an anti-CD70 scFV; assay: as above
[4] = target: anti-CD70 CAR comprising an anti-CD70 scFV; assay: flow cytometry, dilution series (1:100 to 1:5000) of microscale-purified 29E4B5 on anti-CD70 CAR T cells, readout %CAR+

B1: mouse anti-FMC63-scFv monoclonal antibody 29E4B5 (antibody, mouse IgG1, kappa, V domains shown)
VH: EVKLLQSGGGLVQPGGSLKLSCAASGIDFSRYWMSWVRRAPGKGLEWIGEINLDSSTKNYAPSLKDKFIISRDNAKNTLYLQMSKVRSEDTALYYCARNYVGMDYWGQGTSVTVSS
VL: DIVLTQSPASLAVSLGQRATISCRASKSVSSSDYTYMHWYQQKPGQPPKLLIYLASNLESGVPARFSGSGSGTDFTLNIHPVEEEDAATYYCQHSRELPPTFGGGTKLEIKR
- binding [1]: no binding (tested: 1:100 dilution)
- binding [2]: no binding
- binding [3]: no binding
- binding [4]: no binding (tested: 1:100 dilution)
